Measurements reported in PubChem BioAssay AID1053208 (Peter MacCallum Cancer Centre, 2014).
Aim: 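Synthetic lethal interactions between gene loss and doxorubicin in osteosarcoma cells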 (primary screen). Cell system: mouse osteosarcoma cells, early-passage culture from an engineered mouse model of fibroblastic bone tumour. Reagent: siRNA pool against mouse genes, 40 nM. Time to read-out: about 120 h (48 h before drug, then 72 h with drug). Treatment: doxorubicin 100 nM for 72 h, roughly 30-40% inhibitory dose. Read-out: 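Luminescent ATP signal taken as viability with or without 100 nM doxorubicin for 72 h; mean of two wells set against non-targeting siRNA and turned into robust z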. Scale: viability z-score with doxorubicin and doxorubicin viability vs non-targeting: higher = more viable cells under doxorubicin; viability z-score without drug: higher = more viable cells with knock-down alone; z-score of drug to no-drug ratio: higher = less drug sensitisation by knock-down. Hit rule: 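Called active if knock-down leaves viability unchanged without drug (z within -2 to 2) but lowers it with doxorubicin (z at or under -2)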.
Here is a random part of about 17,000 reagents. Of all reagents, 788 (4.7%) are marked active. 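Calls rest on z-score classes alone; an extra cut-off of viability at most 70% of control was not applied to them.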 Entries without a mark were called inactive. Some reagents were tested in more than one well and are listed for each. Reagent sequences are not shown.

Gene	combined z-score class	viability z-score with doxorubicin	viability z-score without drug	z-score of drug to no-drug ratio	doxorubicin viability vs non-targeting
Vkorc1 (GeneID 27973)	low cell count with doxorubicin only (active)	-2.25	0.51	-2.47	0.74
Slc1a4 (GeneID 55963)	no change with or without drug	-0.22	-0.17	0	0.92
Or8k35 (GeneID 404473)	no change with or without drug	0.22	-0.17	0.45	0.96
Osm (GeneID 18413)	no change with or without drug	-1.24	-0.17	-1.12	0.83
2210409E12Rik (GeneID 72381)	high cell count without drug only	-0.34	3.88	-2.36	0.91
Myoz3 (GeneID 170947)	no change with or without drug	0.56	0.17	0.56	0.99
Rragd (GeneID 52187)	no change with or without drug	-1.12	-0.51	-0.79	0.84
Ly6f (GeneID 17071)	no change with or without drug	0.45	-1.52	1.8	0.98
Cr2 (GeneID 12902)	no change with or without drug	-0.67	0	-0.56	0.88
Snrnp35 (GeneID 76167)	no change with or without drug	-1.91	-1.85	-0.67	0.77
T2 (GeneID 21331)	no change with or without drug	-1.46	-1.85	-0.22	0.81
Or52a5b (GeneID 18370)	no change with or without drug	-1.01	-0.51	-0.67	0.85
Zfp36l2 (GeneID 12193)	no change with or without drug	0.22	1.69	-0.79	0.96
Itln1 (GeneID 16429)	no change with or without drug	-0.9	-0.84	-0.22	0.86
Zfp318 (GeneID 57908)	high cell count without drug only	1.12	2.02	-0.11	1.04
Atp13a1 (GeneID 170759)	low cell count with doxorubicin only (active)	-2.25	-1.18	-1.57	0.74
Il33 (GeneID 77125)	no change with or without drug	0.45	0.34	0.34	0.98
Bdkrb2 (GeneID 12062)	no change with or without drug	0.9	-0.51	1.46	1.02
Bdkrb2 (GeneID 12062)	no change with or without drug	-1.8	0	-1.8	0.78
Airim (GeneID 194268)	high cell count without drug only	0.67	2.02	-0.56	1
Mapk1ip1l (GeneID 218975)	no change with or without drug	-0.22	-0.51	0.22	0.92
Ccdc159 (GeneID 67119)	no change with or without drug	0.56	1.01	0	0.99
Evc (GeneID 59056)	no change with or without drug	0.34	1.18	-0.34	0.97
Pik3ip1 (GeneID 216505)	no change with or without drug	1.01	-0.17	1.35	1.03
Mrc1 (GeneID 17533)	no change with or without drug	1.35	0	1.57	1.06
Slfn4 (GeneID 20558)	no change with or without drug	-0.22	-1.85	1.35	0.92
Hr (GeneID 15460)	no change with or without drug	-0.67	-1.18	0.22	0.88
Ern2 (GeneID 26918)	no change with or without drug	0.9	1.18	0.22	1.02
TRDN	no change with or without drug	1.46	0.84	1.01	1.07
Aldh1l2 (GeneID 216188)	no change with or without drug	0.11	1.01	-0.45	0.95
Rora (GeneID 19883)	no change with or without drug	0.45	0.51	0.22	0.98
Mgat5b (GeneID 268510)	no change with or without drug	0.9	0.51	0.67	1.02
Trerf1 (GeneID 224829)	no change with or without drug	0.22	0.67	-0.11	0.96
Emc7 (GeneID 73024)	no change with or without drug	1.24	0.84	0.79	1.05
